The results in this text go back to patent US20240190999A1.

Assay [1] addresses biotinylated cynomolgus 4-1BB (bio.c4-1BB) (cynomolgus monkey). Kind of assay: SPR (ProteOn XPR36).
Assay [2] deals with cynomolgus FAP (cFAP) (cynomolgus monkey). Put plainly: SPR (ProteOn XPR36).

These are yes or no findings as the source states them, for the method shown. Binding can be weak; no strength is given.

B1: bispecific construct #44 (designed binder)
chain: MRGSHHHHHHGSDLGEKLLVAALYGQDDEVRILLAAGADVNAKDQWGLTPLHKAALQGHLEIVEVLLKAGADVNAKDERGHTPLHWAARFGHLEIVEVLLKAGADVNAQDQKGYTPADLAALWGHEDIAEVLQKAAGSPTPTPTTPTPTPTTPTPTPTGSDLGQKLLKAAQEGQDDEVRELLKAGADVNAKDLRGITPLHVAAWQGHLEIVEVLLKAGADVNAKDSKGETPLHLAAFRGHLEIVEVLLKAGADVNAQDQQGETPADLAALAGHVDIAEVLQKLN
Take B1: in assay [1], the binding entry is on record as “binds”.

B2: bispecific construct #47 (designed binder)
chain: MRGSHHHHHHGSDLGEKLLVAALYGQDDEVRILLAAGADVNAKDQWGLTPLHKAALQGHLEIVEVLLKAGADVNAKDERGHTPLHWAARFGHLEIVEVLLKAGADVNAQDQKGYTPADLAALWGHEDIAEVLQKAAGSPTPTPTTPTPTPTTPTPTPTGSDLGKKLLEAARAGQDDEVRELLKAGADVNAKDTYGETPLHLAAWKGHLEIVEVLLKAGADVNAKDSIGITPLHVAAHHGHLEIVEVLLKAGADVNAKDKWGRTPLHLAALLGHLEIAEVLLKAGADVNAQDKSGKTPADLAADAGHDDIAEVLQKLN
In the case of B2, the binding entry in assay [1] is listed as “binds”.

B3: bispecific construct #49 (designed binder)
chain: MRGSHHHHHHGSDLGEKLLVAALYGQDDEVRILLAAGADVNAKDQWGLTPLHKAALQGHLEIVEVLLKAGADVNAKDERGHTPLHWAARFGHLEIVEVLLKAGADVNAQDQKGYTPADLAALWGHEDIAEVLQKAAGSPTPTPTTPTPTPTTPTPTPTGSDLGKKLLVAANVGQDDEVRILLAAGADVNAKDYHGYTPLHHAATYGHLEIVEVLLKAGADVNAKDQTGLTPLHLAAAKGHLEIVEVLLKAGADVNAQDHHGYTPADLAAFVGHEDIAVVLQKLN
On to B3, for which the binding result in assay [1] was “binds”.

B4: Multispecific binding protein A (MpA) (designed binder)
chain: GSDLGKKLLEAARAGQDDEVRELLKAGADVNAKDYFSHTPLHLAARNGHLKIVEVLLKAGADVNAKDFAGKTPLHLAAADGHLEIVEVLLKAGADVNAQDIFGKTPADIAADAGHEDIAEVLQKAAGSPTPTPTTPTPTPTTPTPTPTGSDLGKKLLEAARAGQDDEVRELLKAGADVNAKDVLGWTPLHLAAFEGHLEIVEVLLKAGADVNAKDKKGWTPLQLAARTGHLEIVEVLLKAGADVNAKDHIGATPLHLAAWQGHPEIVEVLLKAGADVNAQDKSGKTPADLAADAGHEDIAEVLQKAAGSPTPTPTTPTPTPTTPTPTPTGSDLGQKLLKAAQEGQDDEVRELLKAGADVNAKDLRGITPLHVAAWQGHLEIVEVLLKAGADVNAKDSKGETPLHLAAFRGHLEIVEVLLKAGADVNAQDQQGETPADLAALAGHVDIAEVLQKAAGSPTPTPTTPTPTPTTPTPTPTGSDLGQKLLKAAQEGQDDEVRELLKAGADVNAKDLRGITPLHVAAWQGHLEIVEVLLKAGADVNAKDSKGETPLHLAAFRGHLEIVEVLLKAGADVNAQDQQGETPADLAALAGHVDIAEVLQKAAGSPTPTPTTPTPTPTTPTPTPTGSDLGKKLLEAARAGQDDEVRELLKAGADVNAKDYFSHTPLHLAARNGHLKIVEVLLKAGADVNAKDFAGKTPLHLAAADGHLEIVEVLLKAGADVNAQDIFGKTPADIAADAGHEDIAEVLQKAA
For B4, the binding result in assay [1] and in assay [2] was “binds” in each case.
